Measurements as given in US20240201191A1, “CITRULLINATED PROTEINS AS BIOMARKERS AND THERAPY TARGETS FOR CANCER” (BOARD OF REGENTS, THE UNIVERSITY OF TEXAS SYSTEM, priority 2022, published 2024).

test system: HCC1954 (HR-/Her2+) cells; test: Cell surface HLA-bound peptidyl-citrullinome by mass spectrometry, HCC1954; format: cell-based, human; conditions: mild acid elution, LC-MS/MS, FDR=0.01; class by peptide length

Substance | Cell surface MHC binding citrullinated peptide identified in HCC1954 (HR−/Her2+)
AVEKGVPLYR*HIADLAGNS (AVEKGVPLYRHIADLAGNS; citrulline at R10; MOD_RES (10)..(10) Citrullinated Arginine) [SEQ ID NO: 45, ENO1 peptide, R10(Cit.)] | MHC-II (from 12 to 34 as MHC-IU binding peptides)
DVASVQQQR*QEQSY (DVASVQQQRQEQSY; citrulline at R9; MOD_RES (9)..(9) Citrullinated Arginine) [SEQ ID NO: 86, PLIN3 peptide, R9(Cit.)] | MHC-II (from 12 to 34 as MHC-IU binding peptides)

test system: MDA-MB-468 (TNBC) cells; test: Cell surface HLA-bound peptidyl-citrullinome by mass spectrometry, MDA-MB-468; format: cell-based, human; conditions: mild acid elution, LC-MS/MS, FDR=0.01; class by peptide length

Substance | Cell surface MHC binding citrullinated peptide identified in MDA-MB-468 (TNBC)
WQGLIVPDNPPYDKGAFR* (citrulline at R18; MOD_RES (18)..(18) Citrullinated Arginine) [SEQ ID NO: 133, UBE2L3 peptide, R18(Cit.)] | MHC-II (from 12 to 34 as MHC-IU binding peptides)
WSDLDELKGAR*SLET (WSDLDELKGARSLET; citrulline at R11; MOD_RES (11)..(11) Citrullinated Arginine) [SEQ ID NO: 101, PPPIR7 peptide, R11(Cit.)] | MHC-II (from 12 to 34 as MHC-IU binding peptides)
WYDNEFGYSNR*VVD (WYDNEFGYSNRVVD; citrulline at R11; MOD_RES (11)..(11) Citrullinated Arginine) [SEQ ID NO: 50, GAPDH peptide, RII(Cit.)] | MHC-II (from 12 to 34 as MHC-IU binding peptides)
YQVKPYHGGGAPLR*VELPT (YQVKPYHGGGAPLRVELPT; citrulline at R14; MOD_RES (14)..(14) Citrullinated Arginine) [SEQ ID NO: 1, AIMP2 peptide, R14(Cit.)] | MHC-II (from 12 to 34 as MHC-IU binding peptides)
YR*QQAAYYAQTSPQGMPQHPPAPQGQ (YRQQAAYYAQTSPQGMPQHPPAPQGQ; citrulline at R2; MOD_RES (2)..(2) Citrullinated Arginine) [SEQ ID NO: 46, FUBP1 peptide, R2(Cit.)] | MHC-II (from 12 to 34 as MHC-IU binding peptides)
YSIQGQHTISPLDLAKLNQVAR*QQSH (YSIQGQHTISPLDLAKLNQVARQQSH; citrulline at R22; MOD_RES (22)..(22) Citrullinated Arginine) [SEQ ID NO: 76, PCBP1 peptide, R22(Cit.)] | MHC-II (from 12 to 34 as MHC-IU binding peptides)
YVLEQASSHIGNSTQATVR*DAVVGR*PSMDKKAQ (YVLEQASSHIGNSTQATVRDAVVGRPSMDKKAQ; citrulline at R19 and R25; MOD_RES (19)..(19) Citrullinated Arginine; MOD_RES (25)..(25) Citrullinated Arginine) [SEQ ID NO: 5, ATL3 peptide, R19(Cit.); R25(Cit.)] | MHC-II (from 12 to 34 as MHC-IU binding peptides)
YVLEQASSHIGNSTQATVR*DAVVGRPSMDKKAQ (YVLEQASSHIGNSTQATVRDAVVGRPSMDKKAQ; citrulline at R19; MOD_RES (19)..(19) Citrullinated Arginine) [SEQ ID NO: 6, ATL3 peptide, R19(Cit.)] | MHC-II (from 12 to 34 as MHC-IU binding peptides)
YVSNEELR*GSTPEAAAQVVQ (YVSNEELRGSTPEAAAQVVQ; citrulline at R8; MOD_RES (8)..(8) Citrullinated Arginine) [SEQ ID NO: 39, EEF1G peptide, R8(Cit.)] | MHC-II (from 12 to 34 as MHC-IU binding peptides)
YVSNEELR*GSTPEAAAQVVQWVS (YVSNEELRGSTPEAAAQVVQWVS; citrulline at R8; MOD_RES (8)..(8) Citrullinated Arginine) [SEQ ID NO: 40, EEF1G peptide, R8(Cit.)] | MHC-II (from 12 to 34 as MHC-IU binding peptides)

Some ranges recur; such a range may be that of the whole group of compounds.
